Laboratory results published in article PMC10462666.
These are yes or no findings as the source states them, for the method shown. In cells and extracts the contact can be indirect. Some entries that bind do so weakly or less than the wild type.

The chains behind the UniProt entries cited, without tags or fusion partners.
UniProt Q15154: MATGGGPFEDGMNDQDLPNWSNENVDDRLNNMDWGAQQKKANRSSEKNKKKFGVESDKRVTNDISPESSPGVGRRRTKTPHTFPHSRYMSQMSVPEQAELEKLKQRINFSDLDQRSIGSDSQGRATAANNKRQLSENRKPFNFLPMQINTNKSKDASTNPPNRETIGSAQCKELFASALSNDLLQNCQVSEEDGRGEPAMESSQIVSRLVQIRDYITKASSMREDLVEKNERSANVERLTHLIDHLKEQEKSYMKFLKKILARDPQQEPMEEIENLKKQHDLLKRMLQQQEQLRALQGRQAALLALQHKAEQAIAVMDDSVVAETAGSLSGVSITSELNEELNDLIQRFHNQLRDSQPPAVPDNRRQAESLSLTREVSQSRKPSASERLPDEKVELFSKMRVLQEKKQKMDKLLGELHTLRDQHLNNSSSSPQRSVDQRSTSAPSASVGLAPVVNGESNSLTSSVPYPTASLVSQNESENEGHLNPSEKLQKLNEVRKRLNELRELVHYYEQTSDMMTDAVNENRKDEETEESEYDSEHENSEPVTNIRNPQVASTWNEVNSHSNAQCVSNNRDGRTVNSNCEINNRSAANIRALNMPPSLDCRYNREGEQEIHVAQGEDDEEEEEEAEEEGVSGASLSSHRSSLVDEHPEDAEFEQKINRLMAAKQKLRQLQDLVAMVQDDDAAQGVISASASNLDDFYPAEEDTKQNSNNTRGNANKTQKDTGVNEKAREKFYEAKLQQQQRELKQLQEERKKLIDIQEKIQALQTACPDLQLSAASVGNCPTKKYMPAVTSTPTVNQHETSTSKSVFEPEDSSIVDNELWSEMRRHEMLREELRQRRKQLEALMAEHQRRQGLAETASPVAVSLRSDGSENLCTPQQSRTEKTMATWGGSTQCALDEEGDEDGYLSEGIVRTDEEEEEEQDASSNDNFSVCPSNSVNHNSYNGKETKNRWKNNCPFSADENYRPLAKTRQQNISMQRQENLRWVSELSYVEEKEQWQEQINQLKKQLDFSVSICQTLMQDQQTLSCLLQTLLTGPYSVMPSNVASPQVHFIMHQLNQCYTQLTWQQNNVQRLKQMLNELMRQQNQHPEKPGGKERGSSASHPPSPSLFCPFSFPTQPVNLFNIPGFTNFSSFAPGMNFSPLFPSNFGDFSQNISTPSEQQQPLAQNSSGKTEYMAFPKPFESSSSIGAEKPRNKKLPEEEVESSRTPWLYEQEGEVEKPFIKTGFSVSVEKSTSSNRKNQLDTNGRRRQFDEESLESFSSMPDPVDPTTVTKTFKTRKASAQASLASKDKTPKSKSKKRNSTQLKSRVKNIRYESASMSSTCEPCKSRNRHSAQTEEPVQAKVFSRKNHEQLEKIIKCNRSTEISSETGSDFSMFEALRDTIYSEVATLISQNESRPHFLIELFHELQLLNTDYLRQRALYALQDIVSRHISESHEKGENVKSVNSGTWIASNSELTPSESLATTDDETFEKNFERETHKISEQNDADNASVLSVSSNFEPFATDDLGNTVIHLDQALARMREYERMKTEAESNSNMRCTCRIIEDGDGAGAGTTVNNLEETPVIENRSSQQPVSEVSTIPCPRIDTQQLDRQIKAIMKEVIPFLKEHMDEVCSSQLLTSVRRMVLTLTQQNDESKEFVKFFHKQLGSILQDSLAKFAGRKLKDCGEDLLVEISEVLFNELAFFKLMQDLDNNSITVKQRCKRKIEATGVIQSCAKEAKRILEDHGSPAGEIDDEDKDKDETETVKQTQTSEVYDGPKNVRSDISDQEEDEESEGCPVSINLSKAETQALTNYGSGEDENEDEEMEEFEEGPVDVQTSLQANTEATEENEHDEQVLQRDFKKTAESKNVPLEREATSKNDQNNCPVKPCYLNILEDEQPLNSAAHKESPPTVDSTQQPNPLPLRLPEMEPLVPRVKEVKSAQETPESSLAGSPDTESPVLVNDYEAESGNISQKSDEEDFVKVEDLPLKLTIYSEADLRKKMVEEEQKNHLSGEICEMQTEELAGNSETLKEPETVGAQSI
UniProt O60884: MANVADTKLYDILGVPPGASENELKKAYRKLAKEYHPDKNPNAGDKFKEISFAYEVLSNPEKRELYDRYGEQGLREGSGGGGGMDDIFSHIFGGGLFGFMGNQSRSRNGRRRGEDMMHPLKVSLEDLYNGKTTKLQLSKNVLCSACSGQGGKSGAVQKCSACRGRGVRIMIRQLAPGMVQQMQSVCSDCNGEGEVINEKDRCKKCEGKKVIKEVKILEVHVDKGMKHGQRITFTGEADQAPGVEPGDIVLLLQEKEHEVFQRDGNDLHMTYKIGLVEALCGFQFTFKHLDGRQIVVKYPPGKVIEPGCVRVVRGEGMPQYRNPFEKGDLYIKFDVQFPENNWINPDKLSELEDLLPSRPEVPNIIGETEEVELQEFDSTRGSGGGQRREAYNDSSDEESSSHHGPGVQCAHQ

Target: HA-tagged WT PCM1 (human) (UniProt Q15154)
Assay: co-IP; lysate of HeLa cells expressing HA-tagged WT or 2AA PCM1; anti-HA antibody, Protein G agarose; Western blot for HSC70 and DNAJA2

- binding: binds
Substance: DnaJ heat shock protein (HSP40) family member A2 (DNAJA2) (from UniProt O60884 1-412)
